# This is one part of the list. Most entries show no effect beyond the scatter of the controls.
# Sequences of proteins named here, by UniProt entry; tags and fusion partners are left off. A change or cut given only in a name is not applied to a line headed by its entry.
# UniProt P23591: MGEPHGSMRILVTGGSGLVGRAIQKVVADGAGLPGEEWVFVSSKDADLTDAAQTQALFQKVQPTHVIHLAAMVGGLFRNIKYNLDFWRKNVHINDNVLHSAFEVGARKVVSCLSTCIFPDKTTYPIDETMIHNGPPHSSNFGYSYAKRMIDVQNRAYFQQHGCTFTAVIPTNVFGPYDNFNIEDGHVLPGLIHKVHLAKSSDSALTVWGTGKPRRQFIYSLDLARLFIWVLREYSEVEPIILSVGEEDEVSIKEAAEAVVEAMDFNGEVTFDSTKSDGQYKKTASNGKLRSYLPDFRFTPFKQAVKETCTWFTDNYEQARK
# UniProt P11404, whole entry: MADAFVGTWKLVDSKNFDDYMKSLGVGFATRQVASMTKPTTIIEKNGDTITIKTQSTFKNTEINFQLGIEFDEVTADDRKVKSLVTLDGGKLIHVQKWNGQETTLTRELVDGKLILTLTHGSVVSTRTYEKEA
# UniProt P09411: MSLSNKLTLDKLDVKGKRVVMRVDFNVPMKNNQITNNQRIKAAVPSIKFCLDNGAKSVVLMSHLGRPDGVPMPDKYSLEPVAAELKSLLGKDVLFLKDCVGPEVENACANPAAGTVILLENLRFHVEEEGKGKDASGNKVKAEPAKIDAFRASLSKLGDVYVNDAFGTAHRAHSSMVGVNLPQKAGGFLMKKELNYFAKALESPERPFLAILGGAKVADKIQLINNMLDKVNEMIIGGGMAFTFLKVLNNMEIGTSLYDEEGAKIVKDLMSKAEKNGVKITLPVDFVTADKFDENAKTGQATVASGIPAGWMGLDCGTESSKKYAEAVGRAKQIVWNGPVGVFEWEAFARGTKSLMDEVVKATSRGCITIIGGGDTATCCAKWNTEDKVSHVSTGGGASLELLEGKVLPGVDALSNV
# UniProt P28230: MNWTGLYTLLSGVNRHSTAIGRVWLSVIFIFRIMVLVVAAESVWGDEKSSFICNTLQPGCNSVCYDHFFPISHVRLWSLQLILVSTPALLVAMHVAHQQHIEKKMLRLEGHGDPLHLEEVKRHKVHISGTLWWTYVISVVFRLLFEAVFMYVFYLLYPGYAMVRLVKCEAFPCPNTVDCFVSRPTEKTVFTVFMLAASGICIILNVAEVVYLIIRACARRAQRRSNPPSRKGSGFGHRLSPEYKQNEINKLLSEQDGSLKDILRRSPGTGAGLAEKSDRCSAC
# UniProt P12710: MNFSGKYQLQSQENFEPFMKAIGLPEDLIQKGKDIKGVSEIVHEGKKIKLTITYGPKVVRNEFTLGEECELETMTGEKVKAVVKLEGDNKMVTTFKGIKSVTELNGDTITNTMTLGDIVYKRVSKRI
# UniProt P13020, whole entry: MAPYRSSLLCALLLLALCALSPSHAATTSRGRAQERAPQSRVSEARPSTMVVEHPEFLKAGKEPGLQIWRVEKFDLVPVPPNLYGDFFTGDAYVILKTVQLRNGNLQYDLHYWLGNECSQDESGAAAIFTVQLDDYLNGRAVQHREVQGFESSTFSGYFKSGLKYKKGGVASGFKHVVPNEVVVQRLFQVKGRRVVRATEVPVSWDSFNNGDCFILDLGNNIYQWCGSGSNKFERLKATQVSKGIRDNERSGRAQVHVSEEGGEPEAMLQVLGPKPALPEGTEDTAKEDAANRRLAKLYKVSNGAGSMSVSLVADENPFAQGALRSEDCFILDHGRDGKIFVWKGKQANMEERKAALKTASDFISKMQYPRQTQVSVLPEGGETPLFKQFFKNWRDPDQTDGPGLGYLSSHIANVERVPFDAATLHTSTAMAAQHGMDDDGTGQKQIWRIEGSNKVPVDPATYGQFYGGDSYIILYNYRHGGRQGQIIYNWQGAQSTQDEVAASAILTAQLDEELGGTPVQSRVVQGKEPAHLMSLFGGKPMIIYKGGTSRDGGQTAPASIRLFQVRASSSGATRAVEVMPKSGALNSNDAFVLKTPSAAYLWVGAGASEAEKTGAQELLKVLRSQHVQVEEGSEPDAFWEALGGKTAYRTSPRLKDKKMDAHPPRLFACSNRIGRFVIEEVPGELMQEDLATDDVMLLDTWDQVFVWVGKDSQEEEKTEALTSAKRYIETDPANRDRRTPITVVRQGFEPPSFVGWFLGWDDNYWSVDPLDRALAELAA
# UniProt P22437, whole entry: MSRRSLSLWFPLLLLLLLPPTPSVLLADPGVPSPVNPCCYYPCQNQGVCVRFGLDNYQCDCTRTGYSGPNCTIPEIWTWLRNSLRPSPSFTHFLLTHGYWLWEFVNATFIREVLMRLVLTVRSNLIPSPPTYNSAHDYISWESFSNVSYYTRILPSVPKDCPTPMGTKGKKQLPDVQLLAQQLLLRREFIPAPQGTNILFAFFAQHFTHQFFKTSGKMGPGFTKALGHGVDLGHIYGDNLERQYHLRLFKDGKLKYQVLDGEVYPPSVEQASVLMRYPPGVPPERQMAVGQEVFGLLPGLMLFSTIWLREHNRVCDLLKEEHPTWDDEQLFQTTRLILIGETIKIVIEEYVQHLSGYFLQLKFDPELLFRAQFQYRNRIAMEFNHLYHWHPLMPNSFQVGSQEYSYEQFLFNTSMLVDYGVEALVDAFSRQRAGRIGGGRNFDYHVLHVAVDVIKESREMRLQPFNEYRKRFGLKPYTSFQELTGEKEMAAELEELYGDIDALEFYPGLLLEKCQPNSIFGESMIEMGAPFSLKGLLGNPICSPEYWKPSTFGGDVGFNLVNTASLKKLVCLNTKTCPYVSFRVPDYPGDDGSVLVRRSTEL
# UniProt P24668: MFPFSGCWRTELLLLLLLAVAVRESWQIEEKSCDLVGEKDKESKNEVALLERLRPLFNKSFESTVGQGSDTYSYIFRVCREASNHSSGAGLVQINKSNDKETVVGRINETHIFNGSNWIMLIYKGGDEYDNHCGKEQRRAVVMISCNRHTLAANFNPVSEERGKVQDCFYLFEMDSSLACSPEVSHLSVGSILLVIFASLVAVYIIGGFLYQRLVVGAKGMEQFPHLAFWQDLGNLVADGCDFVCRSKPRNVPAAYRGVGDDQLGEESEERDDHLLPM
# UniProt P11983, whole entry: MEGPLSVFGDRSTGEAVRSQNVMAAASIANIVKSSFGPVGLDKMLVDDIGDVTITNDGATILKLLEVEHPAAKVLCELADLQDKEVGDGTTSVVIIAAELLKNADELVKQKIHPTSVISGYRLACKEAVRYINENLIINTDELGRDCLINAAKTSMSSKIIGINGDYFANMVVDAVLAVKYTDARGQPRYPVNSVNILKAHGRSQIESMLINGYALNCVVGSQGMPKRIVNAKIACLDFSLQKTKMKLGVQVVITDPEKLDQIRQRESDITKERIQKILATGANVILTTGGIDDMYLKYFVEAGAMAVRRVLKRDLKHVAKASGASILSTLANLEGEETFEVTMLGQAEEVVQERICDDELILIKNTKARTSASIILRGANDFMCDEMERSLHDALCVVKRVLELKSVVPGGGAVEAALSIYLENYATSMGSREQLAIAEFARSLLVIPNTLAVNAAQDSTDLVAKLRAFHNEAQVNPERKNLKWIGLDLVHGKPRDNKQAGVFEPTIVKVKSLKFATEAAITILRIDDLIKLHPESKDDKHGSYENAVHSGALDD
# UniProt P08122: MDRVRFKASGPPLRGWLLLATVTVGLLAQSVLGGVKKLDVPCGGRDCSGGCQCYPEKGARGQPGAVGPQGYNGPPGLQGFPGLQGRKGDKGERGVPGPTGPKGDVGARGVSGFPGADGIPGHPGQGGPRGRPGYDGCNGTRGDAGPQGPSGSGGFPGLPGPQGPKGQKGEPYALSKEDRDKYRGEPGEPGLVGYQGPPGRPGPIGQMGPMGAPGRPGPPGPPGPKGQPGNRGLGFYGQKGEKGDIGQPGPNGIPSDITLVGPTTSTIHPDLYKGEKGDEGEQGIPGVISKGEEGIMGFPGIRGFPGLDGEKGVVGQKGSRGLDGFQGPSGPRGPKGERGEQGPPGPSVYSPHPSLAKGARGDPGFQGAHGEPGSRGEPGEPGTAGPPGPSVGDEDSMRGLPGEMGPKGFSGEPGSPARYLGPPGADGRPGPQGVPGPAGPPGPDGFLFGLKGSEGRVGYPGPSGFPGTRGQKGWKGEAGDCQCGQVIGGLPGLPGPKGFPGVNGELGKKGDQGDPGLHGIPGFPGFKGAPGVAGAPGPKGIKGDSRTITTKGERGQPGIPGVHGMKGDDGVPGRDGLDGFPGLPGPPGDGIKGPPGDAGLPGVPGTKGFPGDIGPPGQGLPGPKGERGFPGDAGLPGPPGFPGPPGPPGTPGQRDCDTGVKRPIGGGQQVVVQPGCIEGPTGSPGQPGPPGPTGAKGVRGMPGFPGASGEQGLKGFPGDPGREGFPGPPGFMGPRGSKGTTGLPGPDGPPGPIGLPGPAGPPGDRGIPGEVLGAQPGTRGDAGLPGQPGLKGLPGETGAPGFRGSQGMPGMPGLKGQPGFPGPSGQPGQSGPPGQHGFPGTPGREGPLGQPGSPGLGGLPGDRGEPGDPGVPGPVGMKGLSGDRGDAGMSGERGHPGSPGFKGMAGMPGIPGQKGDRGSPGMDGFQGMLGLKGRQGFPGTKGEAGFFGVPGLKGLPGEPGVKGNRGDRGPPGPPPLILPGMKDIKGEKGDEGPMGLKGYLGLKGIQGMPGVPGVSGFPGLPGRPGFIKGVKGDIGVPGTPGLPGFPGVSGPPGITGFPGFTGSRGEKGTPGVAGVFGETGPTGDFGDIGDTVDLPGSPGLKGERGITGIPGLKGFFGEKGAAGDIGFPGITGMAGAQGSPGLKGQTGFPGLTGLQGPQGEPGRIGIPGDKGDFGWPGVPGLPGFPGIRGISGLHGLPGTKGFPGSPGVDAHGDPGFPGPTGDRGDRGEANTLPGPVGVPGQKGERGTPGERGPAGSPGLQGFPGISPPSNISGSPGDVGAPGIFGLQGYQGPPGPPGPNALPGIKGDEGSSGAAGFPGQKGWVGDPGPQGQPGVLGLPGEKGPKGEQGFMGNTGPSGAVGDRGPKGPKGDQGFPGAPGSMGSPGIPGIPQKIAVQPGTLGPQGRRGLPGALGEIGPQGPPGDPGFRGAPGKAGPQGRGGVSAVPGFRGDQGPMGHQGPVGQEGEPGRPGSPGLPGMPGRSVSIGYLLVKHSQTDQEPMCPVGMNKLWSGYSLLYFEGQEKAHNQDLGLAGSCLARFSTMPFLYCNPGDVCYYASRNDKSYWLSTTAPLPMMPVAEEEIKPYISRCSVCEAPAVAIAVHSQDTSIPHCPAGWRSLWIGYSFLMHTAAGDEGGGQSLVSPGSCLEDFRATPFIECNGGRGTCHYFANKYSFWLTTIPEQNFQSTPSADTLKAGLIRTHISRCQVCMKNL
# UniProt P15532, whole entry: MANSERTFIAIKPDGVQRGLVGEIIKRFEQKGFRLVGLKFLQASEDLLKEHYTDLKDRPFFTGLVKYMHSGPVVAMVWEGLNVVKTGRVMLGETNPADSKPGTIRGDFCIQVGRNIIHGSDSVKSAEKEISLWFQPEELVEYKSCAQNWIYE
# UniProt P07356, whole entry: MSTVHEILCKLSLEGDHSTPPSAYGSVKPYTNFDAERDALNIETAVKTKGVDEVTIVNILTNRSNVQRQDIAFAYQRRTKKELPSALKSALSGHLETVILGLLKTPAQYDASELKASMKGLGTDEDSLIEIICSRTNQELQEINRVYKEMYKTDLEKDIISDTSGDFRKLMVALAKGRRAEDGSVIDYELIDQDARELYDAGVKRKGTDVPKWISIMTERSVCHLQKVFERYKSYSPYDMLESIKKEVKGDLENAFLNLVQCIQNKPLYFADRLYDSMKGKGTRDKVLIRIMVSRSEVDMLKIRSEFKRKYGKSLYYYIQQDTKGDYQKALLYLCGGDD
# UniProt P24721: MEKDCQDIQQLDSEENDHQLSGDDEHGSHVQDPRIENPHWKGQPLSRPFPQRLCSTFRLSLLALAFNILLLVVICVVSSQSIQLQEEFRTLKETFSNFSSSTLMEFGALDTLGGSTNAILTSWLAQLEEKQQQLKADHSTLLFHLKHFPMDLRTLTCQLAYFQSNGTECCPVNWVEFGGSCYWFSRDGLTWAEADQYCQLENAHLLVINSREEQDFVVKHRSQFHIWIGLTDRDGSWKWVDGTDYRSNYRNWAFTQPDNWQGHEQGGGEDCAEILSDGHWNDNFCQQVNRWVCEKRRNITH
# UniProt P27784: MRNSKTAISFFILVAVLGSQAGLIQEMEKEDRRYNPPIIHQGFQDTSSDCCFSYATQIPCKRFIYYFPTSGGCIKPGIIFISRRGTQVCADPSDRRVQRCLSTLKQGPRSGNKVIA
# UniProt P11930: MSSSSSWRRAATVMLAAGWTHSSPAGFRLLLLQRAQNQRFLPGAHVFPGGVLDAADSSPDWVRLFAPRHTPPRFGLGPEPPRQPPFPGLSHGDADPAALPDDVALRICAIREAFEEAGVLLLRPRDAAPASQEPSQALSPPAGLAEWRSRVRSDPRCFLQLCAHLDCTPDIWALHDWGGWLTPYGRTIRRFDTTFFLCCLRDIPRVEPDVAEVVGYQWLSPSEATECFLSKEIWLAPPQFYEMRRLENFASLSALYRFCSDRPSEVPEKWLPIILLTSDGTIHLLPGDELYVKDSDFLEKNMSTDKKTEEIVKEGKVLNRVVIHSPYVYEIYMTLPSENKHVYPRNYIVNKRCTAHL
# Compound: CN[C@@H]1C[C@H]2O[C@@](C)([C@@H]1OC)n1c3ccccc3c3c4c(c5c6ccccc6n2c5c31)C(=O)NC4 [staurosporine]
# Test: log2 fold change of pooled soluble protein (PISA), ligand vs vehicle (log2 ratio); higher = more thermally stabilized
# Details: ligand concentration: 20 uM; assay format: PISA pool 52.9/55.5/58.6 C
row,Target,log2 fold change of pooled soluble protein
1,UniProt P23198,-0.0274
2,UniProt P11588,-0.113
3,UniProt P24547,-0.0592
4,UniProt P23591,0.104
5,UniProt P23953,-0.00684
6,UniProt P12367,-0.0191
7,UniProt P11404,0.0232
8,UniProt P09411,-0.0975
9,UniProt P28230,0.0129
10,UniProt P23950,0.015
11,UniProt P10648,0.119
12,UniProt P12710,-0.155
13,UniProt P08032,0.0337
14,UniProt P13020,-0.121
15,UniProt P06909,-0.0439
16,UniProt P22437,-0.101
17,UniProt P24668,0.102
18,UniProt P11983,-0.0079
19,P0DP26;P0DP27;P0DP28,0.25

row,Target,log2 fold change of pooled soluble protein
1,UniProt P08122,-0.184
2,UniProt P15532,0.182
3,UniProt P07356,-0.0388
4,UniProt P19096,-0.0745
5,UniProt P27786,0.246
6,UniProt P03958,0.068
7,UniProt P24721,-0.0433
8,UniProt P06802,0.07
9,UniProt P27784,0.159
10,UniProt P07724,-0.00012
11,UniProt P16015,-0.0595
12,UniProt P11679,-0.278
13,UniProt P10404,-0.204
14,UniProt P11930,0.186
15,UniProt P26443,-0.0879
16,UniProt P24270,-0.199
17,UniProt P24369,-0.116
18,UniProt P25911,-0.0305

# Single entries from the results shown.
# Entry for UniProt P10404 under log2 fold change of pooled soluble protein: -0.204
# Entry for UniProt P27784 under log2 fold change of pooled soluble protein: 0.159

# Reference: the supplement of paper PMC12819154, “High-throughput peptide-centric local stability assay extends protein–ligand identification to membrane proteins, tissues and bacteria” (Nature Structural & Molecular Biology, 2025)
